Results: paper doi:10.1101/2025.07.24.666385
Results are given in words; binding and its absence hold for the method and conditions named. Binding seen in cells or lysates may run through a third protein. Some entries that bind do so weakly or less than the wild type. Sequences can lack the tags named with a protein.

Biological target: DPP9-short (reference isoform), YFP-tagged (human), Q86TI2
Assay: co-IP
Details: remark: other sources report otherwise

binding: binds
B1: FLAG-tagged NLRP1, Q9C000 1-1473 (protein)
chain: MAGGAWGRLACYLEFLKKEELKEFQLLLANKAHSRSSSGETPAQPEKTSGMEVASYLVAQYGEQRAWDLALHTWEQMGLRSLCAQAQEGAGHSPSFPYSPSEPHLGSPSQPTSTAVLMPWIHELPAGCTQGSERRVLRQLPDTSGRRWREISASLLYQALPSSPDHESPSQESPNAPTSTAVLGSWGSPPQPSLAPREQEAPGTQWPLDETSGIYYTEIREREREKSEKGRPPWAAVVGTPPQAHTSLQPHHHPWEPSVRESLCSTWPWKNEDFNQKFTQLLLLQRPHPRSQDPLVKRSWPDYVEENRGHLIEIRDLFGPGLDTQEPRIVILQGAAGIGKSTLARQVKEAWGRGQLYGDRFQHVFYFSCRELAQSKVVSLAELIGKDGTATPAPIRQILSRPERLLFILDGVDEPGWVLQEPSSELCLHWSQPQPADALLGSLLGKTILPEASFLITARTTALQNLIPSLEQARWVEVLGFSESSRKEYFYRYFTDERQAIRAFRLVKSNKELWALCLVPWVSWLACTCLMQQMKRKEKLTLTSKTTTTLCLHYLAQALQAQPLGPQLRDLCSLAAEGIWQKKTLFSPDDLRKHGLDGAIISTFLKMGILQEHPIPLSYSFIHLCFQEFFAAMSYVLEDEKGRGKHSNCIIDLEKTLEAYGIHGLFGASTTRFLLGLLSDEGEREMENIFHCRLSQGRNLMQWVPSLQLLLQPHSLESLHCLYETRNKTFLTQVMAHFEEMGMCVETDMELLVCTFCIKFSRHVKKLQLIEGRQHRSTWSPTMVVLFRWVPVTDAYWQILFSVLKVTRNLKELDLSGNSLSHSAVKSLCKTLRRPRCLLETLRLAGCGLTAEDCKDLAFGLRANQTLTELDLSFNVLTDAGAKHLCQRLRQPSCKLQRLQLVSCGLTSDCCQDLASVLSASPSLKELDLQQNNLDDVGVRLLCEGLRHPACKLIRLGLDQTTLSDEMRQELRALEQEKPQLLIFSRRKPSVMTPTEGLDTGEMSNSTSSLKRQRLGSERAASHVAQANLKLLDVSKIFPIAEIAEESSPEVVPVELLCVPSPASQGDLHTKPLGTDDDFWGPTGPVATEVVDKEKNLYRVHFPVAGSYRWPNTGLCFVMREAVTVEIEFCVWDQFLGEINPQHSWMVAGPLLDIKAEPGAVEAVHLPHFVALQGGHVDTSLFQMAHFKEEGMLLEKPARVELHHIVLENPSFSPLGVLLKMIHNALRFIPVTSVVLLYHRVHPEEVTFHLYLIPSDCSIRKAIDDLEMKFQFVRIHKPPPLTPLYMGCRYTVSGSGSGMLEILPKELELCYRSPGEDQLFSEFYVGHLGSGIRLQVKDKKDETLVWEALVKPGDLMPATTLIPPARIAVPSPLDAPQLLHFVDQYREQLIARVTSVEVVLDKLHGQVLSQEQYERVLAENTRPSQMRKLFSLSQSWDRKCKDGLYQALKETHPHLIMELWEKGSKKGLLPLSS
